# Laboratory results taken from PubChem BioAssay AID1347423 (Functional Genomics Laboratory (NCATS/FGL), 2020).
# In all, about 52,000 sequences went through this assay and about 210 (0.4%) were called active.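 Rule for the calls: active = gene whose silencing raises cell survival under the drug, median off-target-corrected z-score across its silencing RNAs 2 or more; inactive = the rest.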 The list shows a part of the results.
# Test: Resistance to Poly (ADP-Ribose) Polymerase inhibitor: Gene Identification via Genome-wide siRNA Screen
# Conditions: mouse BRCA2 R2336H ES cells, olaparib, CellTiter-Glo viability; hits give high values
# Outline: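 Genome-wide siRNA screen (3 siRNAs/gene, 20 nM) in mouse ES cells carrying hypomorphic BRCA2 R2336H; olaparib 500 nM added 48 h post-transfection, CellTiter-Glo viability 72 h later. Normalized to plate-median negative control; MAD z-scores, gene median, seed-adjusted.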
row,Sequence,z-score
1,GCGGGACCAGGAGUAAACUTT against Pabpnl1,inactive: 2.06
2,GCUACUUUACUACCAGGCCTT against Slc35e3,inactive: 1.42
3,GGCACAGAAAUUAUGUUCUTT against 1810012H11Rik,inactive: -0.685
4,GGAUUGUCAGAAAUCCUGATT against Deadc1,inactive: -0.368
5,GGAGCUCUUCAUCCUCAACTT against Arhgap8,inactive: 0.0742
6,GGAAUGUGUUAUGGUGAUUTT against Mgl2,inactive: -0.346
7,GCCUGAAAUCAACUCCACCTT against F2,inactive: -0.942
8,CCUUUUCCGGUUAAAGCAGTT against Hrmt1l3,inactive: 0.824
9,GGCCUAUCCAUAAUUUAUCTT against Mcm8,inactive: 1.41
10,GGAUGUCACAACAGUUAUGTT against Otog,inactive: 1.4
11,GGGCUCACACAGAAAAAUUTT against Cd244,inactive: -1.72
12,GGAUGGAGAAGUUUACUACTT against Yap1,inactive: -2.7
13,GUACUUUCUUAUUCUCCAATT against Tas2r123,inactive: -1.89
14,UCUUUGGGUAGUUUAGGUATT against Olfr1310,inactive: -0.948
15,GGUCUCAAAGAAAUCUGUATT against Bcap29,inactive: 0.93
16,GGUUACGAAGAUUAAUGUGTT against Crk,inactive: 0.0905
17,GCUAGCCAAUUGUGUUUGATT against Gjb3,inactive: -1.3
18,GCCUCCAGAACUCACUGCATT against Hes3,inactive: 0.776
19,GGUUGUAAGGAACUCUUGGTT against D630002G06,inactive: -0.0542
20,CGGUGAUAGUGGAGUUUGUTT against Olfr266,inactive: -0.501
21,GGUCUUCAAGAACUGUAGCTT against Bcl11b,inactive: 0.566
22,CCUGUAUACUAUCACUUGUTT against Casp8,inactive: -0.0716
23,GCUAUUCAAUAUUUAUGGCTT against Zic1,inactive: 0.414

row,Sequence,z-score
1,GGAUGAGGAGAUAAAGUCUTT against 9130017N09Rik,inactive: 0.314
2,CGAAAAAAAUCCAAGUCAATT against Akap12,inactive: 2.76
3,GGCUAUGACUCGAUUUCUATT against Msh5,inactive: -0.312
4,CCUUUCGAUGAUAAUCGAATT against Olfr971,inactive: 1.06
5,GGACGUAUACAUUCAAUCUTT against Ubash3a,inactive: 1.26
6,CCACCUUGUUGAGUGGCACTT against Smarcd3,inactive: 0.463
7,GCUGGAUUCUGGUAAAUGGTT against Eif5a,inactive: -1.29
8,GGGCAACAAGGAGUACUCATT against LOC260408,inactive: 2.22
9,CCGCAUAAGAGAAUCAAGGTT against 1700012B09Rik,inactive: 0.812
10,CGCGGAAGUUUGAAGUCCUTT against Tusc1,inactive: 1.19
11,GGCAGAUCUGGAGAACCAGTT against Rras,inactive: -2.12
12,GUCACUGAAUUUCUCCUCUTT against Olfr104,inactive: -2.23
13,GGAGGCUGAAAACAUCGUGTT against Sncg,inactive: 0.0624
14,GGGAUUUCGCCAUUGGUGUTT against Col15a1,inactive: 0.853
15,GGAAGAGGUUAGCAAGCAUTT against 1700069O15Rik,inactive: 0.361
16,GCAAGAAACAGCAUUGUCCTT against A930027K05Rik,inactive: 0.661
17,CGUGGUCCUCGAUAACAAATT against 2310001H13Rik,inactive: -0.185
18,GGACUGUGAGGCCUAUGAATT against Cd72,inactive: -2.78
19,CCGACUCGUCUUUACAACUTT against Abcc6,inactive: 0.5
20,CCAAACGAGAGAAAUUCAATT against Rin1,inactive: 1.15
21,GGAGAUGCUGAAGGAUGAGTT against Hrmt1l2,inactive: 2.42
22,GCAAAGUACCCACCUUUGUTT against Pitpn,inactive: 1.9
23,GCAAUUCUGACAACAGCCUTT against A530099J19Rik,inactive: 0.209

row,Sequence,z-score
1,GGACCUUGUACCCAUUCCUTT against Arhgap8,inactive: -1.45
2,GGAAGAAUUGAGGAAAUAGTT against Bbx,inactive: 0.629
3,GGAAGUCCGUUUUUAAGAATT against 4732429I09Rik,inactive: -0.792
4,GCUCCUAGCAGCUCUGAUGTT against Trim33,inactive: -0.0481
5,GGUUCGGGAGACACCUCUUTT against A930008G19Rik,inactive: 0.182
6,GGGCACCAAGAAAAGUCUCTT against Mageh1,inactive: -0.167
7,GGGAGGUUCACAUCCUAAATT against Tgfbr3,inactive: 0.817
8,GGUGAUACGUAUUUUUUAGTT against 2700050F09Rik,active: 1.03
9,CCUGUGCUUUUGUGCAUUATT against Clta,inactive: 0.72
10,GCUCACUUAUCUACGUUUUTT against Trim15,inactive: 0.783
11,GGCCCAUAUUUGACUAUAATT against Tlr4,inactive: 0.842
12,UCUCAUUGCAAUUCUGGGATT against Olfr675,inactive: 0.278
13,GGGCUUGUCCAUGAUGAACTT against Rb1cc1,inactive: 1.27
14,CGUUAGUACAAUAUACAAGTT against St18,inactive: -0.297
15,GGCUGGAAUCACUGAUAUUTT against 1110033O09Rik,inactive: -1.53
16,CCACAUUAAAUACGCAACATT against Nos3,inactive: 0.807
17,GGCAUAAAACAGAUUCCUUTT against Tac1,inactive: 0.511
18,CGGUCACUUUCAACAUCAATT against C1qbp,inactive: 0.0286
19,GGACACCUCGAGAUUCUCUTT against 4921517D21Rik,inactive: 0.247
20,GGAAGACACUCCUCUGCUCTT against p,inactive: 2.2
21,GGCAAAGAAUUCAAUCGGATT against Atp2b2,inactive: 0.0746
